Source: the supplement of paper PMC5836539
± gives the standard deviation of the averaged measurements. This data set is noisy: repeats of one test often differ as much as different tests do.

Chains of the proteins cited; added tags and fusions are not shown. Lines headed by an entry give the natural chain unless they say otherwise; changes in a name come on top.
UniProt P47712: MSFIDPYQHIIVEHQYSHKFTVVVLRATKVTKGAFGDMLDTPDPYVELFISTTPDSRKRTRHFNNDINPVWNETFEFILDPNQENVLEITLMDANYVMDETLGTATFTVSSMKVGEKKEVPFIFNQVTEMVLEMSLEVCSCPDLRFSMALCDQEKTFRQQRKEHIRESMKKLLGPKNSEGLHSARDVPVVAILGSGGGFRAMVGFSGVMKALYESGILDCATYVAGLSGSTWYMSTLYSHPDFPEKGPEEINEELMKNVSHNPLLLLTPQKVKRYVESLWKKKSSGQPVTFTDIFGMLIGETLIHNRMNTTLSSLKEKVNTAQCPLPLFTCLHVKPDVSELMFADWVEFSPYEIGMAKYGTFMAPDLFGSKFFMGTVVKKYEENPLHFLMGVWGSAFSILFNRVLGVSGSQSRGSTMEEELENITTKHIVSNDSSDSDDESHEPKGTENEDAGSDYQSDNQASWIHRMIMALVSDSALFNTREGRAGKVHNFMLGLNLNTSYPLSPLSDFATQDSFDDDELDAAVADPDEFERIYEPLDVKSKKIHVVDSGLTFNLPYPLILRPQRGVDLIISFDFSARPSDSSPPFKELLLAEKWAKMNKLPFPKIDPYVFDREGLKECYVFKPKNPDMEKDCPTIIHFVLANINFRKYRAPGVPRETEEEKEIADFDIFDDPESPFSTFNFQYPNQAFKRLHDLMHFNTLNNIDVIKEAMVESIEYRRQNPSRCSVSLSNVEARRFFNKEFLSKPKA
UniProt Q8ND30: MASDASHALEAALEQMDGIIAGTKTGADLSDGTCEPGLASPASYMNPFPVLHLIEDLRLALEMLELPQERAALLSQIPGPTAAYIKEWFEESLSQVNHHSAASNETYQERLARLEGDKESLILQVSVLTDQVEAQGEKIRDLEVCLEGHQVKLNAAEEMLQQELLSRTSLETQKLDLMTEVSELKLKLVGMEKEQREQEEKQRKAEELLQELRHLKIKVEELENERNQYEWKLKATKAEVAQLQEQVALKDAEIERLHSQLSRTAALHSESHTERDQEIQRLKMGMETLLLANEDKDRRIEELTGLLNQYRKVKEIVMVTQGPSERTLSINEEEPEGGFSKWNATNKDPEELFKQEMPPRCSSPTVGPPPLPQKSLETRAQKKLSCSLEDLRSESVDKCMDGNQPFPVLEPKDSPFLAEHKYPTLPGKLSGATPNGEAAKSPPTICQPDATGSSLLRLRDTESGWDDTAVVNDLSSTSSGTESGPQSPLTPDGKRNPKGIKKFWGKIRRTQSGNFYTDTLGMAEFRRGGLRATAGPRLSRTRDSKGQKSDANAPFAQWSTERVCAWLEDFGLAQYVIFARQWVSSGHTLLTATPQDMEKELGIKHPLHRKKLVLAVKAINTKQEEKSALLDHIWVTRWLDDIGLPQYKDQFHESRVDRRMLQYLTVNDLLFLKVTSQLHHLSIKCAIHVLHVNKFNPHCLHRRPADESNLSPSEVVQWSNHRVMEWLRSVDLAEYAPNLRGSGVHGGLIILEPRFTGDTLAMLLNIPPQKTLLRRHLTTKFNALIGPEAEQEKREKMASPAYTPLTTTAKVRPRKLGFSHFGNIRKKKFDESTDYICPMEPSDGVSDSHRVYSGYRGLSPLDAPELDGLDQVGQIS
UniProt Q08752, whole entry: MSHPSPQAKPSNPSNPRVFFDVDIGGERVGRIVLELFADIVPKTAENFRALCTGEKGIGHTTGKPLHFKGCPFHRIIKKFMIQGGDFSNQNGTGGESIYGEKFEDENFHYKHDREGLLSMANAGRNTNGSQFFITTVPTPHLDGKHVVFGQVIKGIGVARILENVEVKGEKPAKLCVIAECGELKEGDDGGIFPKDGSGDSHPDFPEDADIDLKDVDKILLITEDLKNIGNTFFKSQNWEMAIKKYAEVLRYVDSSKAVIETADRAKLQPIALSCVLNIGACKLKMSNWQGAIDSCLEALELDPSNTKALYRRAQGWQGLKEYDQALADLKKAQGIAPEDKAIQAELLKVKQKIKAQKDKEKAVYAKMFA
UniProt Q13427: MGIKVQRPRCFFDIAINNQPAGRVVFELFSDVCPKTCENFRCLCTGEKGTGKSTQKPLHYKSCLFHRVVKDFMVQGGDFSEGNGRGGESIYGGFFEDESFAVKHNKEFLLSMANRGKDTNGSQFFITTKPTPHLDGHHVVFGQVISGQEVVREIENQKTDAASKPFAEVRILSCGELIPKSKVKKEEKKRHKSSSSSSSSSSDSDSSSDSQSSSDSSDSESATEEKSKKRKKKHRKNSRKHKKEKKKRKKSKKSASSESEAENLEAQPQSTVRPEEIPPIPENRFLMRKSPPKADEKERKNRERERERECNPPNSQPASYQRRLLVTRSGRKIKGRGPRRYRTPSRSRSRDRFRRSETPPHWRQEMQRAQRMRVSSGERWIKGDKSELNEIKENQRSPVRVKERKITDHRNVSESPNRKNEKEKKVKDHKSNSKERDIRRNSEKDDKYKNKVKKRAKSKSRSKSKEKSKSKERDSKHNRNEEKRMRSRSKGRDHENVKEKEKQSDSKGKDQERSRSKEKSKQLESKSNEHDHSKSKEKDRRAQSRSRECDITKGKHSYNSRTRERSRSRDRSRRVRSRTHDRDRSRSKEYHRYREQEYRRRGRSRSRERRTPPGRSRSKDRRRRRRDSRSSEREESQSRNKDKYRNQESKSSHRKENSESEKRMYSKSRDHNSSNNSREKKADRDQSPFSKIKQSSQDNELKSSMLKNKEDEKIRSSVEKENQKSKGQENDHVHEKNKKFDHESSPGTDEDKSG
UniProt O95685: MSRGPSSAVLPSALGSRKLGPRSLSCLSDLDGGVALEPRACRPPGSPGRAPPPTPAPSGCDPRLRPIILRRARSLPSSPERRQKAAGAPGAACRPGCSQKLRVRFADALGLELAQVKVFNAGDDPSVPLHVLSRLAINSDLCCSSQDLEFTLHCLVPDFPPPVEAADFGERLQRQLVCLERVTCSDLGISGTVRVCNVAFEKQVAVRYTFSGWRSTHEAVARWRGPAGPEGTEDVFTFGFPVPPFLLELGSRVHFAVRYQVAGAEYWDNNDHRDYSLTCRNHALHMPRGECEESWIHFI
UniProt Q96QC0: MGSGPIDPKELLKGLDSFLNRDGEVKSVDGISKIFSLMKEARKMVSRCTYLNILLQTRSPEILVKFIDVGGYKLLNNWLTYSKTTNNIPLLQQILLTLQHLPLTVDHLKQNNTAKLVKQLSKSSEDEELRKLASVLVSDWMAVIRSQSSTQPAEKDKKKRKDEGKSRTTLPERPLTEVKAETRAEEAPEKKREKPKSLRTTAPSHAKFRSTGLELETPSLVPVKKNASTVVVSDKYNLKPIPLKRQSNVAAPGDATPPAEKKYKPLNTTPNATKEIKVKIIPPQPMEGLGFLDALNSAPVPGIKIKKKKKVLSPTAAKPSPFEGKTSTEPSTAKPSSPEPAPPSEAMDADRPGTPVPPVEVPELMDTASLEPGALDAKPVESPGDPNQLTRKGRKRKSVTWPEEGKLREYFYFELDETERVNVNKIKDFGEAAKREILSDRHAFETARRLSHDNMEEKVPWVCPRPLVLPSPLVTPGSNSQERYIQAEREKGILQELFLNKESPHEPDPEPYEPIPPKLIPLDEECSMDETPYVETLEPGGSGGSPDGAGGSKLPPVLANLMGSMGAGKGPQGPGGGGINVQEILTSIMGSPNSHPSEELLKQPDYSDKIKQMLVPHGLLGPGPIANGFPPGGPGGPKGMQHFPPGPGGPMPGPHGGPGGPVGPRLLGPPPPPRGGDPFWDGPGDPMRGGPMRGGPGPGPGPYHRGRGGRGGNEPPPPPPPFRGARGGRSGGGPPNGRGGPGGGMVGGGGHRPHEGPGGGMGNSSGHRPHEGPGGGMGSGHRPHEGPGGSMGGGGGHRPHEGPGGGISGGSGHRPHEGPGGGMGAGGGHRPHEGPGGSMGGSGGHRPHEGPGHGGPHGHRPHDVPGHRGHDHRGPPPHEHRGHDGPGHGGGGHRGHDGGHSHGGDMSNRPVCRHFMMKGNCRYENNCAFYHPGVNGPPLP
UniProt P13861, whole entry, looked up: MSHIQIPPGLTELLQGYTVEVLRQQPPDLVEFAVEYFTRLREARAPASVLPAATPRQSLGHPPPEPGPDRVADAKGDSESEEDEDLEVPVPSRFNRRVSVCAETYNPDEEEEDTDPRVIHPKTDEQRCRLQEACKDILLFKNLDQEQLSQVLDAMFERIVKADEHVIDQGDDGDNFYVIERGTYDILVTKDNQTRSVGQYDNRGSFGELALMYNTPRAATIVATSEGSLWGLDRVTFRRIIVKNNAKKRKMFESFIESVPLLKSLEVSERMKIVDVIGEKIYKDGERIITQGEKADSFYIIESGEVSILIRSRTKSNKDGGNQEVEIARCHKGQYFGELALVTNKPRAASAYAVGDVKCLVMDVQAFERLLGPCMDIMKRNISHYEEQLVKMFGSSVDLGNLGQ
UniProt Q13523: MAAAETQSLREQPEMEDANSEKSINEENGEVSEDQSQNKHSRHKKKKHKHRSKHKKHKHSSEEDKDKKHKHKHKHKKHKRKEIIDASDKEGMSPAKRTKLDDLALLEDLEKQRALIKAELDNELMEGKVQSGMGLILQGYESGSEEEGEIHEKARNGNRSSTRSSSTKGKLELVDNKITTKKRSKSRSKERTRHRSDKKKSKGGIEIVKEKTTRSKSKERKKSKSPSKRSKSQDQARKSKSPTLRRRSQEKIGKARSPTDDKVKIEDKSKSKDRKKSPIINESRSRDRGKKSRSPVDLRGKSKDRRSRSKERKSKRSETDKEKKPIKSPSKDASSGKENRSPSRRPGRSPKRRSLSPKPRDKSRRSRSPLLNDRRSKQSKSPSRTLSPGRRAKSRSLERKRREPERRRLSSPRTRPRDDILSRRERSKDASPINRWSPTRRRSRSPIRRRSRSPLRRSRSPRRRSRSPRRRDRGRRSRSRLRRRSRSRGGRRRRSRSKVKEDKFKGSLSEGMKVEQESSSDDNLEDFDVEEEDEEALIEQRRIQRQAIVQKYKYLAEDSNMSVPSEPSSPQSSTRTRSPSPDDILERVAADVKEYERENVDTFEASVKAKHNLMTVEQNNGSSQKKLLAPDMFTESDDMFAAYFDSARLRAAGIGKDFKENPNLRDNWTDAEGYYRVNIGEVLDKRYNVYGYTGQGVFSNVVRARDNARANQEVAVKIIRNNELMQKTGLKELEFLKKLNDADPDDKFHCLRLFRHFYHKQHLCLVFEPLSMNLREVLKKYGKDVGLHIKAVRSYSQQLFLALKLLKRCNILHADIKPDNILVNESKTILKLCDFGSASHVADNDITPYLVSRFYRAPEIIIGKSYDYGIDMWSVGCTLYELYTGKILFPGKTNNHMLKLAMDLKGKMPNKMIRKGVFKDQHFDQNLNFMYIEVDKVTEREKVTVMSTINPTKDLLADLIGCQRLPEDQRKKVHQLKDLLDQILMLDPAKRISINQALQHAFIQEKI
UniProt Q14558: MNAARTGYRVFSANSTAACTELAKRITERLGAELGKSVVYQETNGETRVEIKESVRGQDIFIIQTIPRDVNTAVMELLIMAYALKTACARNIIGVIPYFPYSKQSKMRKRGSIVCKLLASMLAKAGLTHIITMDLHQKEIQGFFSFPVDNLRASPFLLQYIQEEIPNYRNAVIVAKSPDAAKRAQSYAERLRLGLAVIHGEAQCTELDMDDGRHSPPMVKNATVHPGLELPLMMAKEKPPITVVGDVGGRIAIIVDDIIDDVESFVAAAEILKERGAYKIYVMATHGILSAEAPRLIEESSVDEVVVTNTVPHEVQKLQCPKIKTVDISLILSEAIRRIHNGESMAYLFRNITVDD
UniProt O75475: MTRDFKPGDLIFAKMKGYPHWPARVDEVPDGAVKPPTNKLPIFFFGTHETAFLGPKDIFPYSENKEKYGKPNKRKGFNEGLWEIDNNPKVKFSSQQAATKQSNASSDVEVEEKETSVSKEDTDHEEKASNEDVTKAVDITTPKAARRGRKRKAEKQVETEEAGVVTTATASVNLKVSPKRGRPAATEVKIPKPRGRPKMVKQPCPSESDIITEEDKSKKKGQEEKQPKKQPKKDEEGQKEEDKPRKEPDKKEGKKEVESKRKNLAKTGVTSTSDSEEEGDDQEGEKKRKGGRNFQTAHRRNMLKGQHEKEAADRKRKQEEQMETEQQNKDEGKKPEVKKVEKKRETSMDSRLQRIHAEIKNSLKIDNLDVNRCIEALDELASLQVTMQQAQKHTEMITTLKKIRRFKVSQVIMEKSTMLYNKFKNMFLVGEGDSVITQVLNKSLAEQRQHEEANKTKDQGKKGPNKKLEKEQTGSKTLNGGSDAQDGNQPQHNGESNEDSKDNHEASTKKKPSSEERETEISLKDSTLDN
UniProt Q96QR8: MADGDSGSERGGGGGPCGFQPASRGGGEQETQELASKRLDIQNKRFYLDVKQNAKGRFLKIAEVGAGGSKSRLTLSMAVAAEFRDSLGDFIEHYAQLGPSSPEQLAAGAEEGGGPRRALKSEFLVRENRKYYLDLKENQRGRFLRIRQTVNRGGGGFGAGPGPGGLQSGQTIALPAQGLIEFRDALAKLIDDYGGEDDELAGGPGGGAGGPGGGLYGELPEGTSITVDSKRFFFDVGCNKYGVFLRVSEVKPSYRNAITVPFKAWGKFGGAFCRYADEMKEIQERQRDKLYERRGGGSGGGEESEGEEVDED

Compound: CC[C@@H](C)Nc1cc(C(=O)N[C@H]2C[C@H]3CC[C@@H](C2)N3c2ccc(C(=O)C3CC3)cn2)c(C)cc1C(N)=O [XL888]
Experiment: phosphopeptide melting temperature shift (XL888 minus DMSO); higher = stabilised by drug treatment
Details: 100 µM; treatment time 2 h; layout: intact cells; SK-Mel 28
Experimental: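 Phospho-TPP in intact SK-Mel 28 cells treated with 100 uM XL888 or DMSO for 2 h, heated at 10 temperatures (37-67 C) for 3 min, soluble fraction TMT10plex-labelled and TiO2 phospho-enriched. Melting curves were fitted per phosphopeptide; the value is the melting point difference (drug minus vehicle) in each of two biological replicates.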

Target	phosphopeptide melting temperature shift [°C]
PIK3CD phosphosite_1039 (phosphosite position: 1039) (UniProt O00329)	-0.422
PIK3R4 phosphosite_813 (phosphosite position: 813) (UniProt Q99570)	2.77
PLA2G4A phosphosite_434 (phosphosite position: 434) (UniProt P47712)	0.956 ± 0.28
PLA2G4A phosphosite_435 (phosphosite position: 435) (UniProt P47712)	0.988 ± 0.33
PLA2G4A phosphosite_437 (phosphosite position: 437) (UniProt P47712)	0.555 ± 0.4
PLEKHF1 phosphosite_227 (phosphosite position: 227) (UniProt Q96S99)	3.72
PLEKHF2 phosphosite_16 (phosphosite position: 16) (UniProt Q9H8W4)	0.94
PLEKHF2 phosphosite_226 (phosphosite position: 226) (UniProt Q9H8W4)	0.451 ± 0.0062
POLR1A phosphosite_1429 (phosphosite position: 1429) (UniProt O95602)	-0.57
PPFIBP2 phosphosite_329 (phosphosite position: 329) (UniProt Q8ND30)	4.05
PPFIBP2 phosphosite_363 (phosphosite position: 363) (UniProt Q8ND30)	3.62
PPFIBP2 phosphosite_512 (phosphosite position: 512) (UniProt Q8ND30)	0.12 ± 0.034
PPID phosphosite_198 (phosphosite position: 198) (UniProt Q08752)	2.11
PPIG phosphosite_687 (phosphosite position: 687) (UniProt Q13427)	3.24 ± 0.36
PPIG phosphosite_744 (phosphosite position: 744) (UniProt Q13427)	2.07 ± 1.5
PPIG phosphosite_745 (phosphosite position: 745) (UniProt Q13427)	0.124 ± 1.3
PPIG phosphosite_748 (phosphosite position: 748) (UniProt Q13427)	0.124 ± 1.3
PPIG phosphosite_753 (phosphosite position: 753) (UniProt Q13427)	-1.85
PPIL4 phosphosite_178 (phosphosite position: 178) (UniProt Q8WUA2)	0.583 ± 0.17
PPP1R3D phosphosite_46 (phosphosite position: 46) (UniProt O95685)	0.311
PPP1R7 phosphosite_24 (phosphosite position: 24) (UniProt Q15435)	0.581 ± 1.1
PPP1R7 phosphosite_47 (phosphosite position: 47) (UniProt Q15435)	1.77 ± 0.3
PPP1R10 phosphosite_545 (phosphosite position: 545) (UniProt Q96QC0)	-0.594
PRCC phosphosite_157 (phosphosite position: 157) (UniProt Q92733)	6.31
PRKAB1 phosphosite_108 (phosphosite position: 108) (UniProt Q9Y478)	-1.36 ± 1.1
PRKAB2 phosphosite_39 (phosphosite position: 39) (UniProt O43741)	2.27
PRKAB2 phosphosite_108 (phosphosite position: 108) (UniProt O43741)	-0.325 ± 0.86

Target	phosphopeptide melting temperature shift [°C]
PRKAR1A phosphosite_77 (phosphosite position: 77) (UniProt P10644)	0.87 ± 1.3
PRKAR1B phosphosite_83 (phosphosite position: 83) (UniProt P31321)	1.63 ± 0.78
PRKAR2A phosphosite_78 (phosphosite position: 78) (UniProt P13861)	1.12 ± 0.6
PRKAR2A phosphosite_80 (phosphosite position: 80) (UniProt P13861)	0.791 ± 1.4
PRMT3 phosphosite_25 (phosphosite position: 25) (UniProt O60678)	1.72 ± 1.4
PRMT3 phosphosite_27 (phosphosite position: 27) (UniProt O60678)	1.94 ± 1.4
PRPF4B phosphosite_257 (phosphosite position: 257) (UniProt Q13523)	-1.54
PRPF4B phosphosite_292 (phosphosite position: 292) (UniProt Q13523)	-0.245
PRPF4B phosphosite_294 (phosphosite position: 294) (UniProt Q13523)	-0.245
PRPF4B phosphosite_431 (phosphosite position: 431) (UniProt Q13523)	-0.0353
PRPF4B phosphosite_437 (phosphosite position: 437) (UniProt Q13523)	-0.0353
PRPSAP1 phosphosite_215 (phosphosite position: 215) (UniProt Q14558)	-0.763 ± 0.77
PSIP1 phosphosite_106 (phosphosite position: 106) (UniProt O75475)	-0.544
PSIP1 phosphosite_129 (phosphosite position: 129) (UniProt O75475)	-0.568
PSMD2 phosphosite_16 (phosphosite position: 16) (UniProt Q13200)	0.0951
PSMF1 phosphosite_152 (phosphosite position: 152) (UniProt Q92530)	0.497 ± 1.9
PSMF1 phosphosite_153 (phosphosite position: 153) (UniProt Q92530)	-1.08 ± 2.1
PTPN14 phosphosite_314 (phosphosite position: 314) (UniProt Q15678)	1.92
PTPN14 phosphosite_594 (phosphosite position: 594) (UniProt Q15678)	1.63 ± 1.1
PURB phosphosite_101 (phosphosite position: 101) (UniProt Q96QR8)	-0.262
PURB phosphosite_304 (phosphosite position: 304) (UniProt Q96QR8)	4.55
PWP1 phosphosite_50 (phosphosite position: 50) (UniProt Q13610)	1.91 ± 0.96
PWP1 phosphosite_485 (phosphosite position: 485) (UniProt Q13610)	2.82
PXN phosphosite_85 (phosphosite position: 85) (UniProt P49023)	4.18 ± 1.3
PXN phosphosite_137 (phosphosite position: 137) (UniProt P49023)	2.6
QRICH1 phosphosite_345 (phosphosite position: 345) (UniProt Q2TAL8)	1

Quoted from above (two entries):
Target	phosphopeptide melting temperature shift [°C]
PRKAR1A phosphosite_77 (phosphosite position: 77) (UniProt P10644)	0.87 ± 1.3
PRKAR1B phosphosite_83 (phosphosite position: 83) (UniProt P31321)	1.63 ± 0.78
